Test results as given in PubChem BioAssay AID588590 (National Center for Advancing Translational Sciences (NCATS), 2011).
Out of some 390,000 compounds screened, about 4,000 (1%) were called active. Inconclusive means that the source gave no clear call. Such entries were picked first, then a sample of the others. Calls follow the shape of the dose curve; as a rule, active = well fitted inhibition curve with a large enough effect; inconclusive = small, poorly fitted or top-dose-only effect, or another doubt; inactive = no such curve, though single readings can be large or run the other way. Potencies of inconclusive entries are doubtful fits and often do not repeat.

Amino acid sequences for entries named in this document (tags omitted). A change or cut given only in a name is not applied to a line headed by its entry.
UniProt Q9UNA4: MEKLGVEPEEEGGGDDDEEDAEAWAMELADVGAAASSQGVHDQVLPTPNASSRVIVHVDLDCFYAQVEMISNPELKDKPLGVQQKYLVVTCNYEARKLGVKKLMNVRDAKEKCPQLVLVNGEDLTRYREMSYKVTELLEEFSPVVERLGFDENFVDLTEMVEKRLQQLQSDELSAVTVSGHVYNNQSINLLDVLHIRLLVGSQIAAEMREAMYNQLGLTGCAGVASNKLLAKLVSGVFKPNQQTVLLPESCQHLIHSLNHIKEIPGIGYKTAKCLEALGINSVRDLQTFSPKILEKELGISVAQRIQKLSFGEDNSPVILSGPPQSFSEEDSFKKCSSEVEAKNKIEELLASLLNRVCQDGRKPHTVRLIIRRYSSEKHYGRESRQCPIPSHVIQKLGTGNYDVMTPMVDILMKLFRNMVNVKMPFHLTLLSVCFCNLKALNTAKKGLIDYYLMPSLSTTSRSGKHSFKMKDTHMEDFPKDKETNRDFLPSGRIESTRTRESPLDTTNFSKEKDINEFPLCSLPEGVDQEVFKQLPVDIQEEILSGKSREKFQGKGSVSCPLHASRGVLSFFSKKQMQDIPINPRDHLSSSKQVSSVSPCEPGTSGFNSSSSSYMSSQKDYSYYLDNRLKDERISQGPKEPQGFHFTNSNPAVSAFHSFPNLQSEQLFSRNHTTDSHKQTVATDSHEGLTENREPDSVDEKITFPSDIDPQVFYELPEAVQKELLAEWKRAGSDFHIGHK

The compounds below were run against DNA polymerase iota (Homo sapiens) (UniProt Q9UNA4) (assay: qHTS for Inhibitors of Polymerase Iota). Conditions: Pol iota fluorescent replication assay, 10 min; series mostly up to 115 µM.
Outline: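 Pol iota at 10 nM preincubated 15 min with compounds at room temperature; reaction started with fluorescent substrate, 50 nM final. Fluorescence read kinetically at 0 and 10 min; buffer-only wells as negative control.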
Potency is read from the fitted curve at half-maximal effect.

SMILES | Potency
O=S(=O)(Nc1ccccc1Cl)c1cccc2nsnc12 | inconclusive: 50.1 µM [inhibitor, partial curve]
O=C1NC(=O)/C(=C\c2ccccc2Oc2ccc(F)c(F)c2)S1 | inconclusive: 11.2 µM [inhibitor, partial curve, poor fit]
COC(=O)c1ccccc1NC(=O)C1CCN(S(C)(=O)=O)CC1 | inconclusive: 89.1 µM [inhibitor, single point]
CCOc1cc(S(=O)(=O)NCC2OCCc3ccccc32)c(OCC)cc1-n1cnnn1 (configuration not stated) | inconclusive: 89.1 µM [inhibitor, partial curve]
CCc1nnc(NC(=O)CSc2nc3[nH]c(=O)cc(O)c3s2)s1 | inconclusive: 22.4 µM [inhibitor, single point]
CS(=O)(=O)c1ccc(N)c(SSc2cc(S(C)(=O)=O)ccc2N)c1 | inconclusive: 39.8 µM [inhibitor, single point]
Cc1cc(S(=O)(=O)Nc2nc(CN3CCOCC3)nc3sc4c(c23)CCC4)ccc1F | inconclusive: 22.4 µM [inhibitor, partial curve, poor fit]
COC(=O)c1c(NC(=O)c2nc3nc(C)cc(C(F)F)n3n2)sc2c1CCC2 | inconclusive: 89.1 µM [inhibitor, partial curve, poor fit]
Cc1ccc2c(nc3s/c(=C/c4cccs4)c(=O)n32)c1C | inconclusive: 28.2 µM [inhibitor, partial curve, poor fit]
Cc1ccc(S(=O)(=O)NCC(c2cccnc2)N(C)C)cc1 (configuration not stated) | inconclusive: 100 µM [inhibitor, single point]
Cc1c(C(=O)O)cccc1-n1c(C)cc(C=O)c1C | active: 25.1 µM
CCN1CCCC1CNC(=O)c1cc2c(-c3cccc(OC)c3)nn(C)c2s1 (configuration not stated) | inactive
COc1ccc(N(CC(=O)NC2CCCC2)C(=O)CCC(=O)Nc2nc(C)cs2)cc1OC | inconclusive: 79.4 µM [inhibitor, single point]
CCn1nnnc1SCC(=O)Nc1cc(OC)cc(OC)c1 | inconclusive: 7.08 µM [inhibitor, single point]
O=C(O)CSC(=S)N1CCCC1 | inactive
CCN(CC)c1ccc(C(=O)NNC(=O)CCNC(=O)c2ccccc2)cc1 | inactive
COc1cccc(-c2nc(S(=O)(=O)c3ccccc3)c(N3CCOCC3)o2)c1 | inconclusive: 79.4 µM [inhibitor, single point]
CC(C)N1CCc2c(sc(NC(=O)Cc3ccccc3)c2C#N)C1 | inconclusive: 28.2 µM [inhibitor, partial curve, poor fit]
O=C(CSc1nc(-c2ccccc2F)nc2cc(=O)[nH]n12)Nc1cccc(C(F)(F)F)c1 | inconclusive: 89.1 µM [inhibitor, single point]
Oc1c(Br)cc(Br)cc1CNc1ccccn1 | inactive
COc1ccc(-c2nn(-c3ccccc3)cc2/C=N/N=C(N)N)cc1OC | inconclusive: 89.1 µM [inhibitor, partial curve, poor fit]

SMILES | Potency
CC(=O)Nc1nnc(SCc2cc(=O)c(OC(=O)c3ccccc3)co2)s1 | inactive
CCN(CC)S(=O)(=O)c1ccc(NC2=NS(=O)(=O)c3ccccc32)cc1 | inconclusive: 70.8 µM [inhibitor, single point]
COc1ccc(/C=C/C(=O)OCC(=O)N2CCCCCC2)cc1OC | inconclusive: 89.1 µM [inhibitor, single point]
O=C(COc1ccc(/C=N/NC(=O)c2cc3ccccc3o2)cc1Br)Nc1ccccc1 | inconclusive: 20 µM [inhibitor, partial curve, poor fit]
Cc1cc(C)cc(OCC(=O)NCc2nc(-c3ccccc3)no2)c1 | active: 89.1 µM
COC(=O)c1sc(-c2ccccc2)cc1NC(=O)Nc1ccc(F)cc1 | inconclusive: 22.4 µM [inhibitor, full curve, poor fit]
Cc1ccc(-c2cn(CCC(=O)O)c(-c3ccc(Cl)nc3)n2)cc1 | inconclusive: 28.2 µM [inhibitor, single point]
CN(CC(=O)Nc1cccc(F)c1)C(=O)CSc1ccc(Br)cc1 | inconclusive: 11.2 µM [inhibitor, partial curve, poor fit]
O=C(CSC1=NCCN1)Nc1cccc([N+](=O)[O-])c1 | inconclusive: 35.5 µM [inhibitor, partial curve]
N#CC1(C(N)=O)OC12CCS(=O)(=O)c1ccccc12 (configuration not stated) | inactive
COC(=O)Cn1c(=O)c2c(n(Cc3ccccc3)c1=O)N/C(=C/c1ccc(OC)cc1)C2=O | inactive
O=c1[nH]c(C(Cl)Cl)nc2sc3c(c12)CCN(Cc1ccccc1)C3 | inconclusive: 11.2 µM [inhibitor, full curve, poor fit]
NC(=O)C1=C(c2ccccc2)c2ccccc2C1=O | inconclusive: 31.6 µM [inhibitor, partial curve, poor fit]
COc1ccccc1CNC(=O)c1cnc2ccccn2c1=O | inconclusive: 1.12 µM [inhibitor, full curve, poor fit]
CCCn1c(C)cc(-c2csc(N)n2)c1C | inconclusive: 5.01 µM [inhibitor, partial curve, poor fit]
CCOC(=O)c1c(CN(C)C)n(C)c2c(O)c(N=NC(N)=O)c3ccc(Br)cc3c12 | inconclusive: 39.8 µM [inhibitor, single point]
Cc1cc(C(=O)CCC(=O)Nc2ncccc2C)c(C)s1 | inconclusive: 28.2 µM [inhibitor, partial curve]
O=C(CSc1nccn1-c1cccc(Cl)c1)Nc1cccc2ccccc12 | inactive
O=C(O)c1cc(N/N=C/c2c(O)ccc3ccccc23)ccc1Cl | inconclusive: 56.2 µM [inhibitor, partial curve, poor fit]
COc1ccc(C)cc1-n1cnc2cc(C(=O)NC3CCCCCC3)ccc21 | inactive
NC(=O)[C@@H]1CC2(CC(c3cccc(NC(=O)COc4ccc(Cl)cc4)c3)=NO2)CN1C(=O)c1ccccc1 (some centres not stated) | inconclusive: 39.8 µM [inhibitor, single point]

Some of these compounds in order of formula weight, low to high.
SMILES | Potency
Cc1cc(C(=O)CCC(=O)Nc2ncccc2C)c(C)s1 | inconclusive: 28.2 µM [inhibitor, partial curve]
CCN(CC)S(=O)(=O)c1ccc(NC2=NS(=O)(=O)c3ccccc32)cc1 | inconclusive: 70.8 µM [inhibitor, single point]
COC(=O)Cn1c(=O)c2c(n(Cc3ccccc3)c1=O)N/C(=C/c1ccc(OC)cc1)C2=O | inactive
